For test [1], the target named is T1, recombinant Fzd8-Fc (Rattus norvegicus (Rat)) (UniProt Q498S8).
T1 sequence: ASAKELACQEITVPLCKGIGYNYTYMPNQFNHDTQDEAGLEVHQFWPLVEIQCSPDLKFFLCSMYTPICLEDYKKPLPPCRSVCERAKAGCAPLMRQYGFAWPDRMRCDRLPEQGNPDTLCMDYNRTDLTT
Put plainly: immunoprecipitation of recombinant proteins, Western blot.

The target in test [2] is T1, recombinant Fzd8-Fc (Rattus norvegicus (Rat)). As to the kind of experiment: conclusion of Example 1 (immunoprecipitation and TOPflash reporter).

No constants are given. Whether binding was seen depends on the method and setting. Some results given as binding are weak or reduced against the parent protein; the word gives no strength. Sequences can lack the tags named with a protein.

B1: recombinant Wnt-2-GST (ligand, not shown: a dimerising Fc or GST)
chain: SWWYMRATGGSSRVMCDNVPGLVSSQRQLCHRHPDVMRAISQGVAEWTAECQHQFRQHRWNCNTLDRDHSLFGRVLLRSSRESAFVYAISSAGVVFAITRACSQGEVKSCSCDPKKMGSAKDSKGIFDWGGCSDNIDYGIKFARAFVDAKERKGKDARALMNLHNNRAGRKAVKRFLKQECKCHGVSGSCTLRTCWLAMADFRKTGDYLWRKYNGAIQVVMNQDGTGFTVANERFKKPTKNDLVYFENSPDYCIRDREAGSLGTAGRVCNLTSRGMDSCEVMCCGRGYDTSHVTRMTKCGCKFHWCCAVRCQDCLEALDVHTCKAPKNADWTTAT
For B1, the binding result in test [1] and in test [2] was “binds” each time.
